The list shows a part of the results. Values are raw readings; no control value is given beside them.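 Primary screen: polymyxin B was added at a level permeabilizing Salmonella outer membranes while sparing inner membranes. DMSO wells, both with and without polymyxin B, established maximum growth. Plate-to-plate variation meant each plate was ranked on its own, and the lowest-OD600 compounds were selected as hits.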
Test system: Salmonella enterica serovar Typhimurium SL1344
Test: bacterial growth OD600 after 18 h with compound and polymyxin B; higher = more bacterial growth (less inhibition)
Conditions: 50 µM, Mueller-Hinton broth

Row | SMILES | bacterial growth OD600 (polymyxin B 1 µg/mL) | bacterial growth OD600 (polymyxin B 0.75 µg/mL)
1 | CCOC(=O)C1(CCOc2ccccc2)CCN(Cc2ccccc2OC)CC1 | 0.873 | 
2 | CN(Cc1ccc(F)cc1)c1ccc(OCC(=O)N2CCN(C/C=C/c3ccccc3)CC2)nn1 |  | 0.803
3 | COc1c(C)cc(C(=O)C2CCCN(Cc3cnn(C)c3)C2)cc1C (centres undefined) | 0.94 | 
4 | CC(C)Oc1cccc(C(=O)C2CCCN(CCCn3cccn3)C2)c1 (centres undefined) |  | 0.756
5 | COc1c(C)cc(C(=O)C2CCCN(C3CCC3)C2)cc1C (centres undefined) | 0.94 | 
6 | CCN1CCN(C(=O)c2ccc(N3CCC(NC(C)Cc4ccccn4)CC3)cc2)CC1 (centres undefined) |  | 0.968
7 | CCOC(=O)C1(CCOc2ccccc2)CCN(Cc2cccc(O)c2)CC1 | 0.808 | 
8 | CC(C)NC(=O)c1cn(Cc2ccccc2)cc(C(=O)N2CCC(Cc3ccccc3)CC2)c1=O |  | 0.355
9 | CC(=O)C1(c2ccccc2)CCN(C(=O)C2CCC(=O)N(CCN3CCOCC3)C2)CC1 (centres undefined) | 0.956 | 
10 | CN(Cc1ccccc1)C1CCCN(C(=O)Cc2n[nH]c3ccccc23)C1 (centres undefined) |  | 0.828
11 | COc1ccccc1Cn1cc(C(=O)NCCC(C)C)c(=O)c(C(=O)N(C)CCc2ccccn2)c1 |  | 0.759
12 | Cc1oc(-c2cc(F)cc(F)c2)nc1CN1C[C@@H]2C[C@H](C1)c1cccc(=O)n1C2 | 0.975 | 
13 | CC(C)N1CCN(Cc2c[nH]c3ccccc23)CC1CCO (centres undefined) | 0.831 | 
14 | CCNC(=O)c1cn(CC2CCCCC2)cc(C(=O)N2CCN(c3ccc(C(C)=O)cc3)CC2)c1=O |  | 0.909
15 | COc1cccc(CN2CCCC(C(=O)c3ccc(SC)cc3)C2)c1 (centres undefined) | 0.646 | 
16 | O=C1O[C@@H]2CN(C3CSCCSC3)C[C@@H]2N1CCc1ccccn1 |  | 0.774
17 | Cc1nc(C)c(CC(=O)N2CCCC(N3CCN(c4ccccc4C)CC3)C2)s1 (centres undefined) | 1 | 
18 | CC1(C)C(C(=O)N2CCCC(CNC(=O)c3ccc(F)cc3)C2)C1(C)C (centres undefined) | 0.915 | 
19 | COc1ccc(CC(=O)Nc2ccc(N3CCC(NC(C)Cc4cccnc4)CC3)cc2)cc1 (centres undefined) |  | 1.02

Shown tab-delimited: entries from further up.
Row	SMILES	bacterial growth OD600 (polymyxin B 1 µg/mL)	bacterial growth OD600 (polymyxin B 0.75 µg/mL)
1	CCOC(=O)C1(CCOc2ccccc2)CCN(Cc2ccccc2OC)CC1	0.873	
13	CC(C)N1CCN(Cc2c[nH]c3ccccc23)CC1CCO (centres undefined)	0.831	

From the supplement of paper PMC12889115
